PubChem BioAssay AID1259308 – NCATS, 2017

- Test: 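Knock-downs that increase output of a recombinant reporter protein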 (primary screen)
- Cells: human HEK293 embryonic kidney cells stably expressing firefly luciferase (HEK-CMV-Luc2-Hygro)
- Knock-down reagent: single siRNA against human genes, 0.8 pmol siRNA per well
- Timing: 72 h
- Measured: 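Reporter luminescence and viable-cell signal on separate replicate plates, given as percent of non-targeting control and median/MAD z-scores, plus per-cell luciferase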
- Reading the numbers: total luciferase, z-score: higher = more reporter protein produced
- Rule for the call: 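An siRNA counts as active if its total luciferase robust z-score exceeds 3; genes with two or more such siRNAs out of three were retested with fresh siRNAs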
- Meaning of the calls: active = raised luciferase; inactive = no rise
Here is an unselected part of about 59,000 reagents tested. About 1,510 of all reagents (2.6%) count as active. 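Calls use total luciferase alone and ignore viability, so some active siRNAs may act by altering cell number.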 The numbers tell different reagents against one gene apart. Not all columns of the deposit are shown. Reagent sequences are not shown.

gene | reagent no. | total luciferase, z-score | outcome
GPER1 (G protein-coupled estrogen receptor 1) | 1 | 1.62 | inactive
GPER1 (G protein-coupled estrogen receptor 1) | 2 | -1.03 | inactive
GPER1 (G protein-coupled estrogen receptor 1) | 3 | -0.662 | inactive
NPC1 (NPC intracellular cholesterol transporter 1) | 1 | -1.17 | inactive
NPC1 (NPC intracellular cholesterol transporter 1) | 2 | 0.45 | inactive
NPC1 (NPC intracellular cholesterol transporter 1) | 3 | 0.506 | inactive
FEZF2 (FEZ family zinc finger 2) | 1 | -0.282 | inactive
FEZF2 (FEZ family zinc finger 2) | 2 | 1.17 | inactive
FEZF2 (FEZ family zinc finger 2) | 3 | -0.688 | inactive
ZNF609 (zinc finger protein 609) | 1 | 0.755 | inactive
ZNF609 (zinc finger protein 609) | 2 | -0.36 | inactive
ZNF609 (zinc finger protein 609) | 3 | 0.526 | inactive
MAN2A1 (mannosidase alpha class 2A member 1) | 1 | 0.488 | inactive
MAN2A1 (mannosidase alpha class 2A member 1) | 2 | -0.349 | inactive
MAN2A1 (mannosidase alpha class 2A member 1) | 3 | 0.308 | inactive
PIK3C2B | 1 | 1.45 | inactive
PIK3C2B | 2 | 0.912 | inactive
PIK3C2B | 3 | 0.335 | inactive
GLB1L3 (galactosidase beta 1 like 3) | 1 | 0.317 | inactive
GLB1L3 (galactosidase beta 1 like 3) | 2 | -0.0989 | inactive
GLB1L3 (galactosidase beta 1 like 3) | 3 | -0.883 | inactive
CRB1 (crumbs cell polarity complex component 1) | 1 | -0.0155 | inactive
CRB1 (crumbs cell polarity complex component 1) | 2 | -0.319 | inactive
CRB1 (crumbs cell polarity complex component 1) | 3 | 0.979 | inactive
CRLF3P1 (CRLF3 pseudogene 1) | 1 | 0.704 | inactive
CRLF3P1 (CRLF3 pseudogene 1) | 2 | 0.0613 | inactive
CRLF3P1 (CRLF3 pseudogene 1) | 3 | -0.484 | inactive
POLK (DNA polymerase kappa) | 1 | -1.22 | inactive
POLK (DNA polymerase kappa) | 2 | -0.75 | inactive
POLK (DNA polymerase kappa) | 3 | 1.3 | inactive
GIMAP1 (GTPase, IMAP family member 1) | 1 | 5.81 | active
GIMAP1 (GTPase, IMAP family member 1) | 2 | -1.21 | inactive
GIMAP1 (GTPase, IMAP family member 1) | 3 | -0.408 | inactive
ATF4P3 (activating transcription factor 4 pseudogene 3) | 1 | 0.45 | inactive
ATF4P3 (activating transcription factor 4 pseudogene 3) | 2 | -0.297 | inactive
ATF4P3 (activating transcription factor 4 pseudogene 3) | 3 | -0.927 | inactive
DOCK7 (dedicator of cytokinesis 7) | 1 | -0.636 | inactive
DOCK7 (dedicator of cytokinesis 7) | 2 | -1.21 | inactive
DOCK7 (dedicator of cytokinesis 7) | 3 | -0.193 | inactive
GTF2H4 (general transcription factor IIH subunit 4) | 1 | 0.547 | inactive
GTF2H4 (general transcription factor IIH subunit 4) | 2 | -0.99 | inactive
GTF2H4 (general transcription factor IIH subunit 4) | 3 | 0.191 | inactive
NUCB2 (nucleobindin 2) | 1 | -0.713 | inactive
NUCB2 (nucleobindin 2) | 2 | -0.167 | inactive
NUCB2 (nucleobindin 2) | 3 | -1.78 | inactive
BFSP2 (beaded filament structural protein 2) | 1 | 2.87 | inactive
BFSP2 (beaded filament structural protein 2) | 2 | -1.36 | inactive
BFSP2 (beaded filament structural protein 2) | 3 | 2.35 | inactive
CNBD1 (cyclic nucleotide binding domain containing 1) | 1 | 0.804 | inactive
CNBD1 (cyclic nucleotide binding domain containing 1) | 2 | 0.562 | inactive
CNBD1 (cyclic nucleotide binding domain containing 1) | 3 | 2.53 | inactive
TXNDC17 (thioredoxin domain containing 17) | 1 | 1.85 | inactive
TXNDC17 (thioredoxin domain containing 17) | 2 | 0.548 | inactive
TXNDC17 (thioredoxin domain containing 17) | 3 | 1.4 | inactive
ATP5F1D (ATP synthase F1 subunit delta) | 1 | 0.352 | inactive
ATP5F1D (ATP synthase F1 subunit delta) | 2 | -0.628 | inactive
ATP5F1D (ATP synthase F1 subunit delta) | 3 | -0.62 | inactive
MARK3 (microtubule affinity regulating kinase 3) | 1 | 0.37 | inactive
MARK3 (microtubule affinity regulating kinase 3) | 2 | 2.87 | inactive
MARK3 (microtubule affinity regulating kinase 3) | 3 | 0.564 | inactive
GLYATL2 (glycine-N-acyltransferase like 2) | 1 | -0.935 | inactive
GLYATL2 (glycine-N-acyltransferase like 2) | 2 | 0.144 | inactive
GLYATL2 (glycine-N-acyltransferase like 2) | 3 | -0.577 | inactive
HSPA12B (heat shock protein family A (Hsp70) member 12B) | 1 | -0.409 | inactive
HSPA12B (heat shock protein family A (Hsp70) member 12B) | 2 | -0.233 | inactive
HSPA12B (heat shock protein family A (Hsp70) member 12B) | 3 | 1.09 | inactive
ZNF827 (zinc finger protein 827) | 1 | 0.599 | inactive
ZNF827 (zinc finger protein 827) | 2 | -0.186 | inactive
ZNF827 (zinc finger protein 827) | 3 | -0.949 | inactive
HTR2C (5-hydroxytryptamine receptor 2C) | 1 | -0.775 | inactive
HTR2C (5-hydroxytryptamine receptor 2C) | 2 | -0.443 | inactive
HTR2C (5-hydroxytryptamine receptor 2C) | 3 | 2.37 | inactive
FOSL2 (FOS like 2, AP-1 transcription factor subunit) | 1 | -0.406 | inactive
FOSL2 (FOS like 2, AP-1 transcription factor subunit) | 2 | -1.43 | inactive
FOSL2 (FOS like 2, AP-1 transcription factor subunit) | 3 | -0.502 | inactive

Part of the list above, set out differently:
gene	reagent no.	total luciferase, z-score	outcome
NPC1 (NPC intracellular cholesterol transporter 1)	2	0.45	inactive
NPC1 (NPC intracellular cholesterol transporter 1)	3	0.506	inactive
FEZF2 (FEZ family zinc finger 2)	1	-0.282	inactive
FEZF2 (FEZ family zinc finger 2)	2	1.17	inactive
FEZF2 (FEZ family zinc finger 2)	3	-0.688	inactive
